Our source for the T/C values is PubChem BioAssay AID192 (DTP/NCI, 2004).

In this test the test system is BDF1 mice, B16 melanoma ip, median survival T/C. The test is described as follows: NCI In Vivo Anticancer Drug Screen. Data for tumor model B16 Melanoma (intraperitoneal) in B6D2F1 (BDF1) mice. The following applies: T/C endpoint: median survival time, schedule: Q01DX009 (ip), higher T/C = longer survival. The essentials: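 Mice with transplantable tumors; drug vs vehicle groups; endpoint survival or tumor size; value = T/C.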

The list is a part of this screen's results and no random one: it gathers some chemical classes. Not every dose and run of a compound is shown. T/C is the treated group as % of the vehicle group. Where survival is the endpoint, this PubChem deposit counts one and a half times the control or more as active, and values a quarter to a half above the control carry no call in these data; other NCI protocols may use other cut-offs. Schedules are NCI's codes, taken here to give the interval after Q, in days (D) or hours (H), and the number of doses after X. Some entries show no survivor count and are marked so; the dose need not have been tolerated.

Take `C[C@@H]1CCOC(=O)/C=C/C=C\C(=O)O[C@@H]2C[C@H]3O[C@@H]4[C@@H]5OC5(C)CCC4(COC(=O)[C@H]1O)[C@]2(C)[C@@]31CO1` (some centres undefined): the T/C runs as follows: (dose: 0.5 mg/kg/injection, vehicle: saline + alcohol) 139 % of control [survivor count not shown]; (dose: 1.0 mg/kg/injection, vehicle: saline + alcohol) 159 % of control [survivor count not shown]; (dose: 2.0 mg/kg/injection, vehicle: saline + alcohol) 130 % of control [survivor count not shown]; (dose: 4.0 mg/kg/injection, vehicle: saline + alcohol) 131 % of control [survivor count not shown]; (dose: 8.0 mg/kg/injection, vehicle: saline + alcohol) 114 % of control [survivor count not shown].

For `CC1=CC2OC3C(OC(=O)CCl)C(OC(=O)CCl)C(C)(C2(COC(=O)CCl)CC1)C31CO1` (centres undefined), the T/C is 109 % of control [survivor count not shown] (dose: 1.0 mg/kg/injection, vehicle: water); 104 % of control [survivor count not shown] (dose: 2.0 mg/kg/injection, vehicle: water); 105 % of control [survivor count not shown] (dose: 4.0 mg/kg/injection, vehicle: water); 114 % of control [survivor count not shown] (dose: 8.0 mg/kg/injection, vehicle: water).
